Experimental data from publication PMC2614481.

The chains behind the UniProt entries cited, without tags or fusion partners.
UniProt Q12432: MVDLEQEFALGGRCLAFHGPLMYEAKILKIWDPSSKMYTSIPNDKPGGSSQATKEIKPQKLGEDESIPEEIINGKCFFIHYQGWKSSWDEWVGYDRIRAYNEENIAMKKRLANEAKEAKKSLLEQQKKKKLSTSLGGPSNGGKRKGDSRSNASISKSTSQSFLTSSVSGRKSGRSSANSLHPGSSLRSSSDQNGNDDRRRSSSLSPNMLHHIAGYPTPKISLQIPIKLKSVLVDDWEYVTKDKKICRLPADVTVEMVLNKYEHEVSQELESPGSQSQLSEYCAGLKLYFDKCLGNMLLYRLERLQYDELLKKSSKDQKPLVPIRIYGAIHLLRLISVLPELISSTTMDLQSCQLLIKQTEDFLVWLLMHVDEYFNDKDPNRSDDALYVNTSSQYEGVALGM

Target: T1, Sc_Rpd3p (S. cerevisiae) (UniProt P32561)
T1 sequence: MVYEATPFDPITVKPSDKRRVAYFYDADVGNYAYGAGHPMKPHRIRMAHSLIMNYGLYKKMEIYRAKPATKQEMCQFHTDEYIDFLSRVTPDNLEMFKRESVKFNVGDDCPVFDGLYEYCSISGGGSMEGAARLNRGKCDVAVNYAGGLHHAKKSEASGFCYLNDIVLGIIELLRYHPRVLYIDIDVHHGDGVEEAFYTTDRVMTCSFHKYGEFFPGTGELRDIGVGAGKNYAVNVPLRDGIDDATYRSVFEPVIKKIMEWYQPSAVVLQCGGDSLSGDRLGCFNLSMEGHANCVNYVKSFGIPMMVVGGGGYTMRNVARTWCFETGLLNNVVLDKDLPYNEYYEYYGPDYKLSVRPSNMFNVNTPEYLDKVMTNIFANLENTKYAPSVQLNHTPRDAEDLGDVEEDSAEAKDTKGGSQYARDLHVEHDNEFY
Assay: affinity purification with mass spectrometry; TAP of baits TAP-tagged at their genes from S. cerevisiae extracts; eluates on 6-18% gels, Coomassie, bands and slices identified by MALDI peptide mapping and LC-MS/MS; common background removed, A-index cut-off 1.75

With Sc_Eaf3p (from UniProt Q12432 1-401) the binding was “binds”.

Results are given in words; binding and its absence hold for the method and conditions named. Binding seen in cells or lysates may run through a third protein. Here binding means that the protein was enriched with, or labelled near, the bait; the list need not be complete.
